The text below walks through data of the supplement of paper PMC8007513.

Some of the results follow. Most values come without repeats; read them as rough.

The test concerns Saccharomyces cerevisiae BY4743. Kind of test: growth (OD600) relative to untreated control; higher = less growth inhibition. Particulars: compound concentration: 133 uM; 20 h. The protocol: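 NMCCC compounds (133 uM, no IPBC) tested alone against Saccharomyces cerevisiae BY4743 in YPD, 96-well plates, starting OD600 ~0.1. Growth was read as OD600 at 20 h and expressed as % of the untreated control. Single pass.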
`CCc1c(C)nc(SCC(=O)N2CCN(c3ccccc3OC)CC2)nc1O`: the growth came out at 100%. `Cn1nc(C(C)(C)C)cc1NC(=O)COc1ccc(Oc2ccccn2)cc1`: the growth is 112%.

In turn, `Cn1c(Cc2nnn(Cc3ccc(Cl)cc3Cl)n2)nnc1SCC#N` yielded a growth of 105%. Next, `COC(=O)c1ccc(N2CCCC2)c(NC(=O)N(C)Cc2ccc(OC)cc2OC)c1`: 103%; `CC(=O)c1c(C)[nH]c(C(=O)C(C)Oc2ccc(F)c(Cl)c2)c1C` (configuration not stated): 109%. `Cc1noc(C)c1C(=O)OCC(=O)NCC1CCCO1` (configuration not stated): the growth was 91.6%. `CCOC(F)(C(F)(F)F)C(F)(F)OC(F)(CC(F)(F)F)\C1=N\CCN1` (configuration not stated) came in with a growth of 105%. Compound `CCOC(=O)C1=NOC\2=C1C(=O)N(C(C)C(=O)NC3=CC=CC(=C3C)Cl)C(=N2)\C` (configuration not stated) yielded a growth of 89.4%.

`CCN(CCNC(=O)CN1\N=C/C2=C(SC=C2)C1=O)C3=CC=CC=C3` came in with a growth of 91.6%. `COc1cccc(NC(=O)C2(n3cnnn3)CCCCC2)c1` returned a growth of 90%. Compound `COc1ccc(NC(=O)c2ccnc(N3CCC(C)CC3)c2)cc1` registered a growth of 90.1%. `Cc1ccc(C)c(C(=O)CSc2nncn2Cc2ccco2)c1` yielded a growth of 113%.

Compound `COc1ncccc1C(=O)Nc1ccc(-n2cncn2)nc1` came in with a growth of 90.8%.

Take `CC(Oc1ccc(Cl)cc1Cl)C(=O)Nc1ccc(S(=O)(=O)N2CCOCC2)cc1` (configuration not stated): the growth stood at 116%. Regarding `CC(=O)c1c(C)[nH]c(C(=O)N(Cc2nnc(-c3ccc(Cl)cc3)o2)C(C)C)c1C`, the growth is 109%.

`CN(C(=O)Cn1c(=O)[nH]c2ccccc2c1=O)C1CCS(=O)(=O)C1` (configuration not stated) showed a growth of 99.9%.

The compound `CCCNC(=O)COC1=CC=C2C(=O)\C(=C(\C)OC2=C1)C3=CC=C(OC)C(=C3)OC` registered a growth of 104%.

Take `COC1=CC=C2N(C)\C=C(/C(=O)C2=C1)[S](=O)(=O)C3=CC=C(C)C=C3`: the growth was 90.4%.

As to `Cc1nc(Cl)cc(NCC2COc3ccccc3O2)n1` (configuration not stated), the growth stood at 97.7%. On to `Cc1cc(C)c(S(=O)(=O)NCC(=O)Nc2ccc(C(N)=O)cc2)c(C)c1`, for which the growth came to 99.6%.

In turn, `Clc1nc(NCc2ccco2)c2[nH]cnc2n1` yielded a growth of 96.1%. `COc1ccc(N(C)C(=O)CN(C)S(=O)(=O)c2ccc3c(c2)c(=O)n(C)c(=O)n3C)c(OC)c1` returned a growth of 99.9%.
